Assay results: patent US20200392228A1
Where a chain is given by its changes, count along the chain named. No constants are given. Whether binding was seen depends on the method and setting. Binding can be weak; no strength is given.

B1: MAdCAM antibody Clone ID 6 of Table 7 (IgG) (antibody, V domains shown)
VH: EVQLLESGGGLVQPGGSLRLSCAASGFTFNNYAFHWVRQAPGKGLEWVSRINSYGTSTTYADSVKGRFTISRDNSKNTLYLQMNSLRAEDTAVYYCAREGPVAGYWYFDLWGQGTLVTVSS
VL: DIQMTQSPSSLSASVGDRVTITCRASQIIGTNLAWYQQKPGKAPKLLIYGASSLQSGVPSRFSGSGSGTDFTLTISSLQPEDFATYYCQQSYRLPFTFGQGTKVEIK
B2: MAdCAM antibody Clone ID 75 of Table 7 (IgG) (antibody, V domains shown)
VH: EVQLLESGGGLVQPGGSLRLSCAASGFTFSDFWMHWVRQAPGKGLEWISYISGDSGYTNYADSVKGRFTISRDNSKNTLYLQMNSLRAEDTAVYYCARDRPYYYYMDVWGKGTTVTVSS
VL: DIQMTQSPSSLSASVGDRVTITCRASQSVSRSLAWYQQKPGKAPKLLIYAASSLQSGVPSRFSGSGSGTDFTLTISSLQPEDFATYYCQQYKSYPVTFGQGTKVEIK
B3: MAdCAM antibody Clone ID 59 of Table 6 (scFv) (scFv)
scFv: EVQLLESGGGLVQPGGSLRLSCAASGFTFSDFWMHWVRQAPGKGLEWISYISGDSGYTNYADSVKGRFTISRDNSKNTLYLQMNSLRAEDTAVYYCARDRPYYYYMDVWGKGTTVTVSSGGGGSGGGGSGGGGSGGGGSDIQMTQSPSSLSASVGDRVTITCRASQSVSRSLAWYQQKPGKAPKLLIYAASSLQSGVPSRFSGSGSGTDFTLTISSLQPEDFATYYCQQYKSYPVTFGQGTKVEIK
B4: MAdCAM antibody Clone ID 63 of Table 6 (scFv) (scFv)
scFv: EVQLLESGGGLVKPGGSLRLSCAASGFTFDDYAMHWVRQAPGKGLEWVASITSSSAFIDYAASVKGRFTISRDDSKNTLYLQMNSLKTEDTAVYYCARERVDWNSYFDLWGRGTLVTVSSGGGGSGGGGSGGGGSGGGGSEIVMTQSPATLSVSPGERATLSCRASQGISNSYLAWYQQKPGQAPRLLIYGASTRATGIPARFSGSGSGTEFTLTISSLQSEDFAVYYCQQYYTYPPTFGPGTKVDIK
B5: MAdCAM antibody Clone ID 6 of Table 6 (scFv) (scFv)
scFv: EVQLLESGGGLVQPGGSLRLSCAASGFTFNNYAFHWVRQAPGKGLEWVSRINSYGTSTTYADSVKGRFTISRDNSKNTLYLQMNSLRAEDTAVYYCAREGPVAGYWYFDLWGQGTLVTVSSGGGGSGGGGSGGGGSGGGGSDIQMTQSPSSLSASVGDRVTITCRASQIIGTNLAWYQQKPGKAPKLLIYGASSLQSGVPSRFSGSGSGTDFTLTISSLQPEDFATYYCQQSYRLPFTFGQGTKVEIK
B6: MAdCAM antibody Clone ID 82 of Table 7 (IgG) (antibody, V domains shown)
VH: QVQLVQSGAEVKKPGASVKVSCKASGYTFTRHWIHWVRQAPGQGLEWMGWINVKTGGAGYAQKFQGRVTMTRDTSTSTVYMELSSLRSEDTAVYYCARESSGWYGTDVWGQGTTVTVSS
VL: B2 VL with V19A, V29I, R31N, S32Y, Y91S, K92N, Y94F, V96L, Q100G
B7: MAdCAM antibody Clone ID 83 of Table 7 (IgG) (antibody, V domains shown)
VH: EVQLLESGGGLVQPGGSLRLSCAASGFTFSSYWMHWVRQAPGKGLEWVAAISYDGKYKDYEDSVKGRFTISRDNSKNTLYLQMNSLRAEDTAVYYCARENKQWLASFDYWGQGTLVTVSS
VL: DIQMTQSPSSLSASVGDRVTITCQASQDISNFVNWYQQKPGKAPKLLIYAANLRSGVPSRFSGSGSGTDFTLTISSLQPEDFATYYCQQANSFPVTFGPGTKVDIK
B8: MAdCAM antibody Clone ID 84 of Table 7 (IgG) (antibody, V domains shown)
VH: QVQLVQSGAEVKKPGASVKVSCKASGGTFSSSAISWVRQAPGQGLEWMGWISAYNGYTNYAQKFQGRVTMTRDTSTSTVYMELSSLRSEDTAVYYCASRVHSGGSYPDDYWGQGTLVTVSS
VL: DIQMTQSPSSLSASVGDRVTITCQASEHIYNYLNWYQQKPGKAPKLLIYAASSLQSGVPSRFSGSGSGTDFTLTISSLQPEDFATYYCQQTDSIPITFGQGTKVEIK
B9: MAdCAM antibody Clone ID 9 of Table 6 (scFv) (scFv)
scFv: EVQLLESGGGLVQPGGSLRLSCAASGFTFSDYYMNWVRQAPGKGLEWVSVIGESGGSTYYADSVKGRFTISRDNSKNTLYLQMNSLRAEDTAVYYCAADPVSRWPKHGGGDYWGQGTLVTVSSGGGGSGGGGSGGGGSGGGGSDIQMTQSPSSLSASVGDRVTITCRASQGISSSLAWYQQKPGKAPKLLIYAASTLQSGVPSRFSGSGSGTDFTLTISSLQPEDFATYYCQQSYSTPWTFGQGTKVEIK
B10: MAdCAM antibody Clone ID 1 of Table 6 (scFv) (scFv)
scFv: EVQLLESGGGLVQPGGSLRLSCAASGFTFSSYGMHWVRQAPGKGLEWVAVISDDGSDKYYADSVKGRFTISRDNSKNTLYLQMNSLRAEDTAVYYCTTSKYYYYYGMDVWGQGTTVTVSSGGGGSGGGGSGGGGSGGGGSDIQMTQSPSSLSASVGDRVTITCQASQDISKSLNWYQQKPGKAPKLLIYAASSLQSGVPSRFSGSGSGTDFTLTISSLQPEDFATYYCQQGYSTPLTFGGGTKVEIK
B11: MAdCAM antibody Clone ID 20 of Table 6 (scFv) (scFv)
scFv: EVQLLESGGGLVQPGGSLRLSCAASGFTFDDYAMHWVRQAPGKGLEWVSYIDTSSSHLYYADSVKGRFTISRDNSKNTLYLQMNSLRAEDTAVYYCARDEAAAGYYGMDVWGQGTTVTVSSGGGGSGGGGSGGGGSGGGGSDIQMTQSPSSLSASVGDRVTITCQAGQDISNYLNWYQQKPGKAPKLLIYDASNLETGVPSRFSGSGSGTDFTLTISSLQPEDFATYYCQQTYSTPITFGQGTKLEIK
B12: MAdCAM antibody Clone ID 23 of Table 6 (scFv) (scFv)
scFv: EVQLLESGGGLVQPGGSLRLSCAASGFTFSSYAMHWVRQAPGKGLEWVSGISGSGGSAYYADSVKGRFTISRDNSKNTLYLQMNSLRAEDTAVYYCATSQAPVDYYYYGMDVWGQGTTVTVSSGGGGSGGGGSGGGGSGGGGSDIQMTQSPSSLSASVGDRVTITCRASQSISSWLAWYQQKPGKAPKLLIYAASNLQRGVPSRFSGSGSGTDFTLTISSLQPEDFATYYCQQSYSIPITFGQGTKVEIK
B13: MAdCAM antibody Clone ID 2 of Table 6 (scFv) (scFv)
scFv: QVQLVQSGAEVKKPGASVKVSCKASGYPFIGYYLHWVRQAPGQGLEWMGIINPSGGSTSYAQKFQGRVTMTRDTSTSTVYMELSSLRSEDTAVYYCAREGRLSYGMDAWGQGTLVTVSSGGGGSGGGGSGGGGSGGGGSDIQMTQSPSSLSASVGDRVTITCRASQSISSYLAWYQQKPGKAPKLLIYGASTLESGVPSRFSGSGSGTDFTLTISSLQPEDFATYYCQQTWGPPFTFGQGTKLEIK
B14: MAdCAM antibody Clone ID 7 of Table 7 (IgG) (antibody, V domains shown)
VH: EVQLLESGGGLVQPGGSLRLSCAASGFTFSDYQMSWVRQAPGKGLEWVAIISHADGGFKDYADSVKGRFTISRDNSKNTLYLQMNSLRAEDTAVYYCAKPYSSGWSAVYYFDYWGQGTLVTVSS
VL: DIQMTQSPSSLSASVGDRVTITCRASRGITNDLGWYQQKPGKAPKLLIYAASTLQSGVPSRFSGSGSGTDFTLTISSLQPEDFATYYCQQAYSFPWTFGQGTKVEIK
B15: MAdCAM antibody Clone ID 14 of Table 7 (IgG) (antibody, V domains shown)
VH: QVQLVQSGAEVKKPGSSVKVSCKASGYTFTNYYMHWVRQAPGQGLEWMGGIIPIVDGVKYAQKFQGRVTITADESTSTAYMELSSLRSEDTAVYYCAKGQFTGNYYYGMDYWGQGTLVTVSS
VL: DIQMTQSPSSLSASVGDRVTITCQANQDISNYLNWYQQKPGKAPKLLIYRASKLEAGVPSRFSGSGSGTDFTLTISSLQPEDFATYYCQQSSEIPYSFGQGTKVEIK
B16: MAdCAM antibody Clone ID 24 of Table 7 (IgG) (antibody, V domains shown)
VH: EVQLVESGGGLVKPGGSLRLSCAASGFTFSSYWMSWVRQAPGKGLEWVSRISSDGRITTYAAPVKGRFTISRDDSKNTLYLQMNSLKTEDTAVYYCARGTSYCTGGVCDIDYWGQGTLVTVSS
VL: B1 VL with I28S, T31R, A34N, G50S, S53N, R93S, L94I, F96L, Q100P, E105D

Each binder was assayed against Cyno MAdCAM protein (cyno) (assay: ELISA).

Row | Binder | binding
1 | B1 | binds
2 | B2 | binds

What follows are binders tested against Cyno MAdCAM protein (cyno) (assay: Octet).

Row | Binder | binding
3 | B3 | binds
4 | B4 | binds
5 | B1 | binds
6 | B5 | binds
7 | B2 | binds
8 | B6 | binds
9 | B7 | binds
10 | B8 | binds
11 | B9 | binds
12 | B10 | binds
13 | B11 | binds
14 | B12 | binds
15 | B13 | binds
16 | B14 | no binding
17 | B15 | no binding
18 | B16 | no binding

Each binder was assayed against Cyno MAdCAM protein (cyno) (assay: binding to different species of MAdCAM, scFv format).

Row | Binder | binding
19 | B3 | binds
20 | B4 | binds
21 | B5 | binds
